Results published in PubChem BioAssay AID2685 (National Center for Advancing Translational Sciences (NCATS), 2010).
The other results are listed elsewhere or left out. Shown are side measurements of this screen, not its main read-out; they come without a call. Compounds called inactive in the main read-out are mostly missing here. Words in brackets tell the shape of the fitted curve; partial curves, single points and poor fits give uncertain potencies.

Assay: qHTS Assay for Lipid Storage Modulators in Drosophila S3 Cells;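 for cell number change: cells counted by Cell Tracker Red CMTPX staining in the red channel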
Settings: BODIPY lipid droplet fluorescence, 18-24 h; for cell number change: measured here: cell count max response, cells fed with added oleic acid
Outline: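 Drosophila S3 cells loaded with oleic acid (400 uM, as added) and compounds at several concentrations; lipid droplets imaged by 488-nm laser-scanning cytometry, 500–530 nm intensity and object ratio to cell channel. Percent activity normalized to 20 uM Triacsin C.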

[1] = measured here: lipid fluorescence (Fed channel) AC50, cells fed with added oleic acid
[2] = measured here: cell number channel AC50, cells fed with added oleic acid

Row | Structure (SMILES) | cell number change [%] | AC50 [1] | AC50 [2]
1 | COc1ccc(C2/C(=C(/O)c3ccc(Br)cc3)C(=O)C(=O)N2C)cc1OC (stereo not drawn) | -4.99 | 29.1 µM [rising, single point] | –
2 | N#Cc1ccc(S(=O)(=O)N2CCN(C(=O)C3CC(=O)N(c4ccc5c(c4)OCCO5)C3)CC2)cc1 (stereo not drawn) | -5.65 | 4.61 µM [falling, full curve, poor fit] | –
3 | O=C(O)c1ccc(CSc2nnc(-c3ccco3)o2)cc1 | – | 0.326 µM [falling, partial curve] | –
4 | Cc1ccc(NS(=O)(=O)c2cccc(C(=O)N/N=C/c3ccc4c(c3)OCCO4)c2)c(C)c1 | – | 0.13 µM [falling, full curve, poor fit] | 6.51 µM [falling, single point]
5 | CCCOc1ccc(C(CC(=O)O)NC(=O)c2sc3ccccc3c2Cl)cc1 (stereo not drawn) | -22.3 | 0.146 µM [falling, full curve, poor fit] | –
6 | COC(=O)Nc1ccc(OC)c(OC)c1 | -4.34 | 0.231 µM [falling, full curve, poor fit] | –
7 | CCOC(=O)CC1=C(C(=O)OCC)C(c2ccc(C)o2)C(C#N)=C(N)O1 (stereo not drawn) | 101 | 6.51 µM [rising, single point] | 23.1 µM [rising, single point]
8 | CN(Cc1ccccc1)C(=O)C1CCCN1S(=O)(=O)c1ccc(Cl)cc1 (stereo not drawn) | -22.2 | 10.3 µM [falling, partial curve] | –
9 | CC(=O)Nc1ccc(S(=O)(=O)NCCC(=O)N2CCc3ccccc32)cc1 | – | 11.6 µM [rising, single point] | –
10 | CO[C@H]1C=CO[C@@]2(C)Oc3c(C)c(O)c4c(O)c(c5c(nc6cc(C)ccn65)c4c3C2=O)NC(=O)C(C)=CC=C[C@H](C)[C@H](O)[C@@H](C)[C@@H](O)[C@@H](C)[C@H](OC(C)=O)[C@@H]1C | -4.37 | 1.84 µM [falling, partial curve, poor fit] | 1.84 µM [falling, partial curve, poor fit]
11 | COc1ccccc1CNC(=O)COn1nnc2ccc(S(=O)(=O)N3CCOCC3)cc21 | 47.5 | – | 10.3 µM [rising, partial curve]
12 | CCN(CC(=O)NCc1cccs1)c1nnnn1-c1ccccc1 | – | 25.9 µM [falling, partial curve, poor fit] | –
13 | CCC(CC)COC(=O)C1=C(C)NC(=O)NC1c1ccc(N(C)C)cc1 (stereo not drawn) | -43.2 | – | 25.9 µM [falling, single point]
14 | CN(Cc1nccs1)C(=O)C1CCC(=O)N(CCCc2ccccc2)C1 (stereo not drawn) | 14.8 | 6.51 µM [falling, single point] | –
15 | COc1ccc(OCCC(=O)Nc2nccs2)cc1 | -15 | – | 0.58 µM [rising, partial curve, poor fit]
16 | Clc1ccc(-c2noc(CSc3nnc(Cc4cccs4)n3-c3ccccc3)n2)cc1 | -12.5 | 0.0366 µM [falling, full curve, poor fit] | –
17 | Cc1nnc(SCC(=O)NCc2cccs2)[nH]c1=O | 8.88 | – | –
18 | O=C(N/C(=C\c1cccnc1)c1nc2ccccc2[nH]1)c1cccc(Br)c1 | 12.2 | 2.06 µM [rising, partial curve] | –
19 | COc1ccc(NC(=O)C(C)Sc2ccccc2)cc1 (stereo not drawn) | 1.3 | – | 0.058 µM [falling, full curve, poor fit]

Numbers 2 to 12, quoted:
Row | Structure (SMILES) | cell number change [%] | AC50 [1] | AC50 [2]
2 | N#Cc1ccc(S(=O)(=O)N2CCN(C(=O)C3CC(=O)N(c4ccc5c(c4)OCCO5)C3)CC2)cc1 (stereo not drawn) | -5.65 | 4.61 µM [falling, full curve, poor fit] | –
3 | O=C(O)c1ccc(CSc2nnc(-c3ccco3)o2)cc1 | – | 0.326 µM [falling, partial curve] | –
4 | Cc1ccc(NS(=O)(=O)c2cccc(C(=O)N/N=C/c3ccc4c(c3)OCCO4)c2)c(C)c1 | – | 0.13 µM [falling, full curve, poor fit] | 6.51 µM [falling, single point]
5 | CCCOc1ccc(C(CC(=O)O)NC(=O)c2sc3ccccc3c2Cl)cc1 (stereo not drawn) | -22.3 | 0.146 µM [falling, full curve, poor fit] | –
6 | COC(=O)Nc1ccc(OC)c(OC)c1 | -4.34 | 0.231 µM [falling, full curve, poor fit] | –
7 | CCOC(=O)CC1=C(C(=O)OCC)C(c2ccc(C)o2)C(C#N)=C(N)O1 (stereo not drawn) | 101 | 6.51 µM [rising, single point] | 23.1 µM [rising, single point]
8 | CN(Cc1ccccc1)C(=O)C1CCCN1S(=O)(=O)c1ccc(Cl)cc1 (stereo not drawn) | -22.2 | 10.3 µM [falling, partial curve] | –
9 | CC(=O)Nc1ccc(S(=O)(=O)NCCC(=O)N2CCc3ccccc32)cc1 | – | 11.6 µM [rising, single point] | –
10 | CO[C@H]1C=CO[C@@]2(C)Oc3c(C)c(O)c4c(O)c(c5c(nc6cc(C)ccn65)c4c3C2=O)NC(=O)C(C)=CC=C[C@H](C)[C@H](O)[C@@H](C)[C@@H](O)[C@@H](C)[C@H](OC(C)=O)[C@@H]1C | -4.37 | 1.84 µM [falling, partial curve, poor fit] | 1.84 µM [falling, partial curve, poor fit]
11 | COc1ccccc1CNC(=O)COn1nnc2ccc(S(=O)(=O)N3CCOCC3)cc21 | 47.5 | – | 10.3 µM [rising, partial curve]
12 | CCN(CC(=O)NCc1cccs1)c1nnnn1-c1ccccc1 | – | 25.9 µM [falling, partial curve, poor fit] | –

More results

Row | Structure (SMILES) | cell number change [%] | AC50 [1] | AC50 [2]
20 | COc1cc(C(=O)N(C)CC2CCN(CCc3cccc(C(F)(F)F)c3)CC2)ccc1C | -8.52 | 29.1 µM [rising, single point] | –
21 | Oc1ccc(C2Nc3cccc4cccc(c34)N2)c(O)c1 | -21.8 | 29.1 µM [falling, single point] | –
22 | O=C(COc1ccc(S(=O)(=O)N2CCCC2)cc1Cl)NCc1ccccn1 | -16.1 | 20.6 µM [falling, single point] | –
23 | O=C(NCCC1=CCCCC1)C1CCCN(S(=O)(=O)c2ccccc2)C1 (stereo not drawn) | – | 0.58 µM [falling, single point] | 0.58 µM [falling, single point]
24 | COc1ccc(C(=O)Nc2ccc(NC(=O)CSc3nnc(-c4ccncc4)n3C)cc2)cc1 | 17.5 | – | –
25 | O=C(c1cccc([N+](=O)[O-])c1)N1CCN(c2ccccn2)CC1 | 21.5 | 23.1 µM [rising, single point] | –
26 | Cc1ccc(C(=O)N/N=C/c2cc(Br)ccc2O)cn1 | -8.39 | – | –
27 | CC1(C)CC(=O)C2=C(C1)Oc1nc3ccccc3cc1C2C(C#N)C#N (stereo not drawn) | -21.9 | 0.731 µM [falling, full curve, poor fit] | –
28 | CCOc1ccccc1N(CC(=O)NC(C)(C)C)C(=O)Cn1nnc(-c2ccc(C)o2)n1 | 17.6 | – | –
29 | COc1ccccc1OCCC(=O)OCC(=O)Nc1ccc(Br)cc1F | 9.65 | 0.461 µM [falling, single point] | –
30 | O=[N+]([O-])c1ccc(C(=S)N2CCN(c3ccc(F)cc3)CC2)cc1 | -32.2 | 23.1 µM [falling, single point] | 23.1 µM [falling, single point]
31 | O=C(Nc1ccc(Cl)cc1F)c1ccccc1Br | 7.62 | 1.84 µM [rising, partial curve, poor fit] | –
32 | COc1ccc(S(=O)(=O)NCc2ccco2)cc1-c1nnc2c3ccccc3c(C)nn12 | -5.14 | – | –
33 | Cc1cc(NC(=O)c2ccco2)no1 | 0.804 | 3.66 µM [falling, partial curve, poor fit] | –
34 | COc1ccc(C(=O)NCCCSC)cc1OC1CCN(C(C)C)CC1 | -9.71 | – | –
35 | O=C(OC1CCOC1=O)c1ccccc1C(=O)c1ccc(Cl)c([N+](=O)[O-])c1 (stereo not drawn) | -11.5 | 0.461 µM [falling, full curve, poor fit] | –
36 | O=C(OCC(=O)N1CCc2ccccc2C1)c1ccc(N2CCOCC2)c([N+](=O)[O-])c1 | -13.8 | 16.4 µM [falling, partial curve, poor fit] | –
37 | CCOC(=O)Nc1cc(OC)c(OC)cc1Cc1nccc2cc(OC)c(OC)cc12 | -27.2 | 0.731 µM [rising, partial curve] | –
